Several values for one entry are separate records, joined by “and”; a condition that tells them apart may be missing. Identical values can stand only once. For part of these data: Some peptides are written in HELM: one residue between dots, names in brackets for other building blocks, links after the first $. * marks the point of attachment. MeOSuc = COC(=O)CCC(=O)*; βAla = NCCC(=O)O

The nature of data set [1]: general procedure: Fmoc solid-phase peptide synthesis; Wang's alkoxy resin (0.60 mmol/gm loading); HBTU/DIEA (SPPS); HATU or HBTU/DIEA for drug coupling.
Data set [2] can be described thus: general procedure: Fmoc solid-phase peptide synthesis; Wang's alkoxy resin; HBTU/DIEA (SPPS); HATU or HBTU/DIEA for drug coupling. Conditions: whole synthesis, method A, sodium salt; lactate salt.
[3] abbreviates: conjugation step, Method B, sodium salt, lactate salt.
Setting [4] is: conjugation step, method A, sodium salt, lactate salt.
Where [5] appears, read: conjugation step, sodium salt, lactate salt.
[6] abbreviates: late stage modification step, HPLC (methods A, B, D), sodium salt, lactate salt.
[7] abbreviates: late stage modification step, sodium salt, lactate salt.
[8] abbreviates: conjugation step, physical yield, sodium salt, lactate salt.
Where [9] appears, read: late stage modification step, method B, sodium salt, lactate salt.
The mark [10] stands for this setting: late stage modification step, sodium salt.

For the substance Allyl-Succinyl-βAla-Leu-Ala-Leu-Dox, the “crude HPLC purity” value in data set [1] (setting [3]) is reported as 90%.

As to Fmoc form of Thi-Tyr-Gly-Leu, in data set [2], the “crude HPLC purity” value stood at 88%.

For Fmoc form of Thi-Tyr-Gly-Leu-Dnr, the “crude HPLC purity” value in data set [1] (setting [4]) came to 91%. Moreover, in data set [1] (setting [5]), the conjugation yield turned out to be 94%.

Take Fmoc form of βAla-Leu-Ala-Leu: the “crude HPLC purity” value in data set [2] is 94%.

For Fmoc form of βAla-Leu-Ala-Leu-Dnr, the “crude HPLC purity” value in data set [1] (setting [4]) is 95%. Besides, in data set [1] (setting [5]), the conjugation yield stood at 94%.

Take Fmoc-βAla-Leu-Ala-Leu benzyl ester: the “crude HPLC purity” value in data set [1] (setting [6]) was determined as 95%. In data set [1] (setting [7]), the step yield was 87%.

In the case of Fmoc-βAla-Leu-Ala-Leu-Dox, in data set [1] (setting [3]), the “crude HPLC purity” value amounted to 90.23%. For the same substance, the conjugation yield in data set [1] (setting [8]) was determined as 89.7%.

On to MeOSuc-βAla-Leu-Ala-Leu benzyl ester, for which the “final purity (method not given)” value in data set [1] (setting [6]) is recorded as 80%. The step yield in data set [1] (setting [7]) is recorded as 60%.

Consider MeOSuc-βAla-Leu-Ala-Leu-Dox, for which the “crude purity (method not given)” value in data set [1] (conjugation step, HPLC (methods A, B, D), sodium salt, lactate salt) is 96%. Further, the “crude HPLC purity” value in data set [1] (setting [3]) is recorded as 93.45%. Moreover, the conjugation yield in data set [1] (setting [8]) worked out at 104.47%; in data set [1] (setting [5]), 98%. Further, in data set [1] (purification step, HPLC (methods A, B, D), sodium salt, lactate salt), the “final HPLC purity” value was 96.5%. In addition, the step yield in data set [1] (purification step, sodium salt, lactate salt) was 86%.

With “N-cap succinyl form of Thi-Tyr-Gly-Leu-Dnr”, the “crude HPLC purity” value in data set [1] (late stage modification step, method A, sodium salt, lactate salt) worked out at 81%. Also, the step yield in data set [1] (setting [7]) is recorded as 80%.

Regarding “N-cap succinyl form of βAla-Leu-Ala-Leu-Dnr”, the “crude HPLC purity” value in data set [1] (setting [9]) is given as 88%. Besides, in data set [1] (setting [7]), the step yield worked out at 80%.

For “PEPTIDE1{[Gl].[bAla].L.A.L.[Dox]}$$$$V2.0”, the “crude HPLC purity” value in data set [1] (late stage modification step, method D, sodium salt) came to 87%. Further, in data set [1] (setting [10]), the step yield was determined as 97%.

In the case of “PEPTIDE1{[Suc].[bAla].L.A.L.[Dox]}$$$$V2.0”, the “crude HPLC purity” value was 93.43% (254 nm) in data set [1] (late stage modification step, 254 nm, method B, sodium salt, lactate salt); 94.43% (480 nm) in data set [1] (late stage modification step, 480 nm, method B, sodium salt, lactate salt); 84.5% in data set [1] (late stage modification step, HPLC (methods A, B, D), sodium salt); 89.13% and 88.2% in data set [1] (late stage modification step, HPLC (methods A, B, D), sodium salt, lactate salt, run 1); 89.06% in data set [1] (late stage modification step, Method B, sodium salt); 91% in data set [1] (late stage modification step, Method D, sodium salt, lactate salt). In addition, the “crude HPLC purity” value was 84% in data set [1] (late stage modification step, method B, sodium salt) and 80.2% in data set [1] (setting [9]). Moreover, the step yield in data set [1] (late stage modification step, physical yield, Na salt) was 87%; in data set [1] (late stage modification step, physical yield, sodium salt, lactate salt, run 1), 81%; in data set [1] (late stage modification step, physical yield, sodium salt, lactate salt, run 2), 98.34%; in data set [1] (late stage modification step, physical yield, sodium salt, run 1), 99%; in data set [1] (late stage modification step, physical yield, sodium salt, run 2), 66.1%; in data set [1] (setting [10]), “about 100%”. The step yield in data set [1] (late stage modification step, sodium salt, lactate salt, run 1) is given as 97%; in data set [1] (late stage modification step, sodium salt, lactate salt, run 2) it was 89%.

On to PEPTIDE1{[bAla].L.A.L.[Dox]}$$$$V2.0, for which the step yield in data set [1] (late stage modification step, lactate salt) stood at 67%. Further, the “final HPLC purity” value in data set [1] (late stage modification step, method B, lactate salt) worked out at 89%.

As to {MeOSuc-βAla}-Leu-Ala-Leu-OH, in data set [1] (setting [7]), the step yield came to 78%.

Take βAla-Leu-Ala-Leu benzyl ester: the “crude purity (method not given)” value in data set [1] (setting [6]) is recorded as 67%.

Source of the values: patent US8034787B2 (Medarex, Inc., priority 1998, dated 2011).
